# Laboratory results from US9737525B2, “Small molecule activators of NRF2 pathway” (The General Hospital Corporation, priority 2013, dated 2017).
# Test system: dopaminergic neurons
# Assay: MPTP mouse model of Parkinson's disease
# Format: in vivo
# Conditions: 90 min after MPTP injection
# Procedure: Male C57BL/6 mice (˜25 g) from Charles River Laboratories, Wilmington, Mass. were housed in temperature- and humidity-controlled rooms with a 12 hr dark: light cycle and had free access to food and water. Subacute MPTP paradigm (20 mg/kg i.p. injection once daily for 4 days) was employed to test dose response of MIND4 at 30 mg/kg, 60 mg/kg, or 90 mg/kg (i.p. 10 min before and 50 min after each MPTP injection). The effective dose of 60 mg/kg was used in the subsequent experiments (i.p. 10 min before and 50 min after each MPTP injection). Control animals received saline (control for MPTP) and 10% propylene glycol and 90% dextrose as vehicle for MIND4 by i.p. Mice were sacrificed 7 days after the last MPTP administration and striatal DA and metabolite HVA were determined by high performance liquid chromatography (HPLC) coupled with electrochemical detection (ECD) Immunostaining for tyrosine hydroxylase (TH), a marker for dopaminergic neurons was performed using mouse anti-TH antibody (Sigma, ST. Louis, Mo.). Total numbers of TH positive neurons in the substantia nigra (SN) were counted under blinded conditions using the Bioquant Image Analysis System (R&M Biometrics, Nashville, Tenn.).
# The protective effects of CPD4 have been confirmed in both acute and subchronic PTP paradigms by comprehensive behavioral, neurochemical, and neuropathological evaluations (FIG. 18). […]
row,Structure (SMILES),MPP+ concentration in the striatum
1,"O=C(Nc1cccc(Br)c1)c1cccc(S(=O)(=O)N2CCCCCC2)c1 [AK7, reference compound]",Increased levels of MPP^+
2,"O=[N+]([O-])c1ccc(Sc2nnc(COc3ccccc3)n2-c2ccccc2)c2ncccc12 [MIND4, 5-nitro-8-{[5-(phenoxymethyl)-4-phenyl-4H-1,2,4-triazol-3-yl]thio}quinoline]",no difference in MPP+ concentration
